# These are yes or no findings as the source states them, for the method shown. Binding seen in cells or lysates may run through a third protein. These calls come from enrichment with a bait or labelling near it, and not all partners need be listed. Tags and fused reporters may be left off the sequences shown.
# Amino acid sequences for entries named in this document (tags omitted). Residues count along the entry.
# UniProt P29372, residues 18-298: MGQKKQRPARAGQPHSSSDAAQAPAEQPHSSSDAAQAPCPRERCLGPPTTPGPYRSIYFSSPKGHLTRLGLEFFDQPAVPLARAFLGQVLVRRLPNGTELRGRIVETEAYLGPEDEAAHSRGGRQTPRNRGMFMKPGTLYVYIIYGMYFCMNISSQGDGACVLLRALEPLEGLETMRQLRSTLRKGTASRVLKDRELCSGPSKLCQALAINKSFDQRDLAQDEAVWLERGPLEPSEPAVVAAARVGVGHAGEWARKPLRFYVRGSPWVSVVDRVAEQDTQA
# Target: T1, Zeb1/GFP fusion protein (UniProt P37275)
# T1 sequence: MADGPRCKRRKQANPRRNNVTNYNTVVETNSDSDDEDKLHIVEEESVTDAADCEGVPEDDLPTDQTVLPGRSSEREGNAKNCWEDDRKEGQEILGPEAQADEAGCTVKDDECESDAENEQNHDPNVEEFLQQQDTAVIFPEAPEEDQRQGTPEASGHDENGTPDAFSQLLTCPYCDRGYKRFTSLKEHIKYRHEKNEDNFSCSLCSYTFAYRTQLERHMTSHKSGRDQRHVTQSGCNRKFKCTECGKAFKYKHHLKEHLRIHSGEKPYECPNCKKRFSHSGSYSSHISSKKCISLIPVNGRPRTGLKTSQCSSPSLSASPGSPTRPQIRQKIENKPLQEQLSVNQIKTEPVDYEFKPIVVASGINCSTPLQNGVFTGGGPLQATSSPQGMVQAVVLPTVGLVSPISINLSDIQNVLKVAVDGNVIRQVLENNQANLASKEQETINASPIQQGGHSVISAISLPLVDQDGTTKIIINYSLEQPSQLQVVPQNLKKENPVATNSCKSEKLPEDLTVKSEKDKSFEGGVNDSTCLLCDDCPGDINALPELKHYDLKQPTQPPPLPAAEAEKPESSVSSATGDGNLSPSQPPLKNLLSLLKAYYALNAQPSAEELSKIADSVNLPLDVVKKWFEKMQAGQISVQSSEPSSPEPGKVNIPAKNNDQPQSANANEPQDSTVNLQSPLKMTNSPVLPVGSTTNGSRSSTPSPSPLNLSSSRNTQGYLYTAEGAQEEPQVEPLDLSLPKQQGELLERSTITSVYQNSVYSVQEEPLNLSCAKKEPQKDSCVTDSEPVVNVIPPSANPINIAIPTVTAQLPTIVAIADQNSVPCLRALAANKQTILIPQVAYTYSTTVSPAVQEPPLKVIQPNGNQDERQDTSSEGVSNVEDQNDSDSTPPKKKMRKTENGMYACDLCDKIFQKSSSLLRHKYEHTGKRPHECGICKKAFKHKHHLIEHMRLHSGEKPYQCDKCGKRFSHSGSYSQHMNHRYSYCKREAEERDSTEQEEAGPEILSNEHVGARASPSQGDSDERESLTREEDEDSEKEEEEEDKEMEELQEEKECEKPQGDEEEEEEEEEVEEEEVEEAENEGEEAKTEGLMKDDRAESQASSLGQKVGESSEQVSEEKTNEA
# Experiment: affinity purification with mass spectrometry; nuclear extracts of MCF-7/Zeb1 cells at 0, 24 and 72 h after doxycycline; Zeb1/GFP captured with llama nano-antibodies to GFP immobilised on sepharose; four washes with RIPA buffer; SDS-PAGE, in-gel trypsin digestion, LC-MALDI TOF/TOF
row,Substance,binding
1,C-terminal-binding protein 2 (from UniProt P56545 1-445),binds
2,MPG (from UniProt P29372 18-298),binds

# Source: PMC8197395
